Measurements published in the supplement of paper PMC6411743.
± gives the standard deviation of the averaged measurements. The list shows a part of the results.

By UniProt entry, the sequences of proteins in these tests, tags left out. Where a name states a change or a piece, a line headed by the entry shows the natural chain unless it says otherwise.
UniProt Q03164, whole entry: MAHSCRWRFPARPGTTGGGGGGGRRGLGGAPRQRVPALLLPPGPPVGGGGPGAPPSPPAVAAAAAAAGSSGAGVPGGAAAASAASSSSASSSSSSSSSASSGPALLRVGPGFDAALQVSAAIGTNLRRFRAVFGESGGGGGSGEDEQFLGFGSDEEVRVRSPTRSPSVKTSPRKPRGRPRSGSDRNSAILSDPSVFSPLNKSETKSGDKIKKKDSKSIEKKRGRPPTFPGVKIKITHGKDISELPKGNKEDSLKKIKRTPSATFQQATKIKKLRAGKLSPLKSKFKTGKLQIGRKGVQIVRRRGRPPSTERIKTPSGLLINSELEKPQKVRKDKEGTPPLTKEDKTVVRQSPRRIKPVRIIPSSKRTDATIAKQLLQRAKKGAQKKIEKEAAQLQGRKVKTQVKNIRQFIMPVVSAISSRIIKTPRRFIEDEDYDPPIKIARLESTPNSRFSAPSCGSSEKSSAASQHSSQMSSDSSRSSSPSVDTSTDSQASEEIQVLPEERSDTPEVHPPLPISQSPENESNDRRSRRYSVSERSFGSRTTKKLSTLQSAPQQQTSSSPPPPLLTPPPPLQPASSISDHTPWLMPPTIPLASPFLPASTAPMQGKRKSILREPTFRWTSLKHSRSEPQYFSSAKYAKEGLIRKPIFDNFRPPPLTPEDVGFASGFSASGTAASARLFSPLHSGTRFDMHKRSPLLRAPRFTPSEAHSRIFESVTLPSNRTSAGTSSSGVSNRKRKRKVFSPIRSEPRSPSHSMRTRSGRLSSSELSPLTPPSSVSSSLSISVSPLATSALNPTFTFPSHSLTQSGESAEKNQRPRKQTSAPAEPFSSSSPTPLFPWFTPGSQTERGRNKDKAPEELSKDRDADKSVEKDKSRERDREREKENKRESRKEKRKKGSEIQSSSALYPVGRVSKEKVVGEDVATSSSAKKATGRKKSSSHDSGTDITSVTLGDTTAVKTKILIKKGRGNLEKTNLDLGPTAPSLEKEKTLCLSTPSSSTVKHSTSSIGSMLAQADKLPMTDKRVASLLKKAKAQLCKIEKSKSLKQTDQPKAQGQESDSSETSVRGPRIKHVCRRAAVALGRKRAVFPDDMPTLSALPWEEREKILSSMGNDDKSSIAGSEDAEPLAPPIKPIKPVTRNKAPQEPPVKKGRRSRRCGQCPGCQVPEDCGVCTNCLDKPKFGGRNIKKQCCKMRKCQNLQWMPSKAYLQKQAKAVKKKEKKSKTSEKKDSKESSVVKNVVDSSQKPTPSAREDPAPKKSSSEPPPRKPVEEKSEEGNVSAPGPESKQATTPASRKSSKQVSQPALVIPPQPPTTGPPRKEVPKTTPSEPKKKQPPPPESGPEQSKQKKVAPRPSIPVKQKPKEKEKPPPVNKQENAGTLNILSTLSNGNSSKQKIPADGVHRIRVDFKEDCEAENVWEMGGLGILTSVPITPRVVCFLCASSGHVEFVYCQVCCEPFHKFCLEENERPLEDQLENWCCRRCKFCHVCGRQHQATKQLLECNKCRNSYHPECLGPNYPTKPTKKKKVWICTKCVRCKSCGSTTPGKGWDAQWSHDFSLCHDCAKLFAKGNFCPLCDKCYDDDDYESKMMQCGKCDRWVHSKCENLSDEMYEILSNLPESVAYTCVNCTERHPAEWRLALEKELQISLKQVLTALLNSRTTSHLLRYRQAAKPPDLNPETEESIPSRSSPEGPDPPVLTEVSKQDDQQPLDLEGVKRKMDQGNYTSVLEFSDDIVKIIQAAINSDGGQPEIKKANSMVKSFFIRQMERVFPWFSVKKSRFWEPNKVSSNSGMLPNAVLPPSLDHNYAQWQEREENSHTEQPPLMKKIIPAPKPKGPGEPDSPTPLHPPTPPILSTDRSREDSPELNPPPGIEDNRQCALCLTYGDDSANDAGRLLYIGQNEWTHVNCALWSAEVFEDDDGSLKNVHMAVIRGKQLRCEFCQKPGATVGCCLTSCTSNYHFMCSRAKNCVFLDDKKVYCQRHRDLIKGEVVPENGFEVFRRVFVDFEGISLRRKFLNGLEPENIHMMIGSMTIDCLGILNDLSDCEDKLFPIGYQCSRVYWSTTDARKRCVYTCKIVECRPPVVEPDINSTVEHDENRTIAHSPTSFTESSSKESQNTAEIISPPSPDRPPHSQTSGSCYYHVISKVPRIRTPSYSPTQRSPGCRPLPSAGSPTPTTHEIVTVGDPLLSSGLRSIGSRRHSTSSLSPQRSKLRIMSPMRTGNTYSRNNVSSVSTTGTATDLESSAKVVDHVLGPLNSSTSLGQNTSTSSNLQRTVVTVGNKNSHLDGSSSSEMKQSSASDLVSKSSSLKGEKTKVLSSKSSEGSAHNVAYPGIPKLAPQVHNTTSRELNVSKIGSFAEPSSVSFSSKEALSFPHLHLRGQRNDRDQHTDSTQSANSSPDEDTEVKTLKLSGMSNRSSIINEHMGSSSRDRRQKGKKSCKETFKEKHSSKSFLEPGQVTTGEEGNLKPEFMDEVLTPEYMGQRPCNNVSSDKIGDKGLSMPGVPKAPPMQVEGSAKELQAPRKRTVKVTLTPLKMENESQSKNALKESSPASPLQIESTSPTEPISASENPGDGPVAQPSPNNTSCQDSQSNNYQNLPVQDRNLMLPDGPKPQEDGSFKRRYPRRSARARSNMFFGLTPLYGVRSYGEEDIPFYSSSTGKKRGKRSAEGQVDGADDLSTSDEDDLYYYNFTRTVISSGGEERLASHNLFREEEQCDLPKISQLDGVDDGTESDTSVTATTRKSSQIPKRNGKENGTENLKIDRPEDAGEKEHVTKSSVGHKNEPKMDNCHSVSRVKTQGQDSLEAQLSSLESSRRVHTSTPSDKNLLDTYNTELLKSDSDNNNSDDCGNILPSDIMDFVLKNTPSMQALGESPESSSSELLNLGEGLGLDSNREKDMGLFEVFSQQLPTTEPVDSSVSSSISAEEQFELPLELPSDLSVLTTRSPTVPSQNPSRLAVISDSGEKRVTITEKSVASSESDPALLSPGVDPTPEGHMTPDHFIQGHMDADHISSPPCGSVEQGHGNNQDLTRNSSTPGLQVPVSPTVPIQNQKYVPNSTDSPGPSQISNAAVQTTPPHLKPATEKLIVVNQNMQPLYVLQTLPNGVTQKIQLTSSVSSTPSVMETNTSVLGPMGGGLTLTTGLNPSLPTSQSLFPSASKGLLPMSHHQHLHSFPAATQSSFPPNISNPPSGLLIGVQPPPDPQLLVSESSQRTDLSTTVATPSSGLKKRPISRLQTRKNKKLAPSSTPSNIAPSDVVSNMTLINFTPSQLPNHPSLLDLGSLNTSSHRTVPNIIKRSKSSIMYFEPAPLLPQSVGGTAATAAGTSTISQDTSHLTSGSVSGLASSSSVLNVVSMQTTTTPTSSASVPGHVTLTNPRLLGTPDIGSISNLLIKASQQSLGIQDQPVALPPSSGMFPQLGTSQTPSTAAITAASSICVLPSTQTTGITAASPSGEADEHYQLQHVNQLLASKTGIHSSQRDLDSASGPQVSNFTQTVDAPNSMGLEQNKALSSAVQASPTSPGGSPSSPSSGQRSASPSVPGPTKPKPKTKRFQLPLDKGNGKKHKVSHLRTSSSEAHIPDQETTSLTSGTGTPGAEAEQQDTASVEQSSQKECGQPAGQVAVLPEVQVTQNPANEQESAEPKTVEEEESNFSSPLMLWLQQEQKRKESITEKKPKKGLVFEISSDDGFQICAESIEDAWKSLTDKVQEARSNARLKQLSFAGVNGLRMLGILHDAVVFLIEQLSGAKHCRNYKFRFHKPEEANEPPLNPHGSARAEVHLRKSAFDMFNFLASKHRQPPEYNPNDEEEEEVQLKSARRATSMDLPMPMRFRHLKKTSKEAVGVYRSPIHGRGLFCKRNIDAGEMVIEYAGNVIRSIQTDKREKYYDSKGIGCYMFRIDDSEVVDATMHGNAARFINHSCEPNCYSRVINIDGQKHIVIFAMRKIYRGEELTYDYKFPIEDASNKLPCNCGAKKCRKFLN
UniProt Q13107: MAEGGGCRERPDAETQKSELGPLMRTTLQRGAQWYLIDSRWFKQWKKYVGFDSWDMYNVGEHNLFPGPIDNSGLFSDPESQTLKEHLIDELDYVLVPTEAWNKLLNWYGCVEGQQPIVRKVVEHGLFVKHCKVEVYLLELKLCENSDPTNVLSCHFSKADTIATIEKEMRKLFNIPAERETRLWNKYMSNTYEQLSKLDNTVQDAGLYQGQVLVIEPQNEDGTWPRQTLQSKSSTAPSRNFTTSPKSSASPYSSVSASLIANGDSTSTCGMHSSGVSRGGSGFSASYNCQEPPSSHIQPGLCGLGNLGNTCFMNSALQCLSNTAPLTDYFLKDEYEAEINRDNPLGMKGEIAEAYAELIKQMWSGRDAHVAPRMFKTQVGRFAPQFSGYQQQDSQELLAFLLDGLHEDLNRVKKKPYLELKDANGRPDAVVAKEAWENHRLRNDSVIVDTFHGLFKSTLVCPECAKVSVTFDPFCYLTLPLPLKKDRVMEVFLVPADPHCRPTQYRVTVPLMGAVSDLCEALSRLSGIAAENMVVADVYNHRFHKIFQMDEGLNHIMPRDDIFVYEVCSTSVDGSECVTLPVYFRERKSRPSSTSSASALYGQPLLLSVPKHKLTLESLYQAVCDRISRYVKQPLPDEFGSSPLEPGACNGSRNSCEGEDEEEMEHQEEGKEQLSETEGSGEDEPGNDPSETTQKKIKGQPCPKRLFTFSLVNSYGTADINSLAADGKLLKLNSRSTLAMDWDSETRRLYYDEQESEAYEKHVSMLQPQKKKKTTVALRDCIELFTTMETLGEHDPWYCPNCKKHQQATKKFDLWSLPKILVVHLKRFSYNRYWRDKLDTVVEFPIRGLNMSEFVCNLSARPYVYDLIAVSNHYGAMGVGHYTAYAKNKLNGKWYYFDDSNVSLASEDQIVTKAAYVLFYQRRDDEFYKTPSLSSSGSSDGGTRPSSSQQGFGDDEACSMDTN
UniProt Q04637, whole entry: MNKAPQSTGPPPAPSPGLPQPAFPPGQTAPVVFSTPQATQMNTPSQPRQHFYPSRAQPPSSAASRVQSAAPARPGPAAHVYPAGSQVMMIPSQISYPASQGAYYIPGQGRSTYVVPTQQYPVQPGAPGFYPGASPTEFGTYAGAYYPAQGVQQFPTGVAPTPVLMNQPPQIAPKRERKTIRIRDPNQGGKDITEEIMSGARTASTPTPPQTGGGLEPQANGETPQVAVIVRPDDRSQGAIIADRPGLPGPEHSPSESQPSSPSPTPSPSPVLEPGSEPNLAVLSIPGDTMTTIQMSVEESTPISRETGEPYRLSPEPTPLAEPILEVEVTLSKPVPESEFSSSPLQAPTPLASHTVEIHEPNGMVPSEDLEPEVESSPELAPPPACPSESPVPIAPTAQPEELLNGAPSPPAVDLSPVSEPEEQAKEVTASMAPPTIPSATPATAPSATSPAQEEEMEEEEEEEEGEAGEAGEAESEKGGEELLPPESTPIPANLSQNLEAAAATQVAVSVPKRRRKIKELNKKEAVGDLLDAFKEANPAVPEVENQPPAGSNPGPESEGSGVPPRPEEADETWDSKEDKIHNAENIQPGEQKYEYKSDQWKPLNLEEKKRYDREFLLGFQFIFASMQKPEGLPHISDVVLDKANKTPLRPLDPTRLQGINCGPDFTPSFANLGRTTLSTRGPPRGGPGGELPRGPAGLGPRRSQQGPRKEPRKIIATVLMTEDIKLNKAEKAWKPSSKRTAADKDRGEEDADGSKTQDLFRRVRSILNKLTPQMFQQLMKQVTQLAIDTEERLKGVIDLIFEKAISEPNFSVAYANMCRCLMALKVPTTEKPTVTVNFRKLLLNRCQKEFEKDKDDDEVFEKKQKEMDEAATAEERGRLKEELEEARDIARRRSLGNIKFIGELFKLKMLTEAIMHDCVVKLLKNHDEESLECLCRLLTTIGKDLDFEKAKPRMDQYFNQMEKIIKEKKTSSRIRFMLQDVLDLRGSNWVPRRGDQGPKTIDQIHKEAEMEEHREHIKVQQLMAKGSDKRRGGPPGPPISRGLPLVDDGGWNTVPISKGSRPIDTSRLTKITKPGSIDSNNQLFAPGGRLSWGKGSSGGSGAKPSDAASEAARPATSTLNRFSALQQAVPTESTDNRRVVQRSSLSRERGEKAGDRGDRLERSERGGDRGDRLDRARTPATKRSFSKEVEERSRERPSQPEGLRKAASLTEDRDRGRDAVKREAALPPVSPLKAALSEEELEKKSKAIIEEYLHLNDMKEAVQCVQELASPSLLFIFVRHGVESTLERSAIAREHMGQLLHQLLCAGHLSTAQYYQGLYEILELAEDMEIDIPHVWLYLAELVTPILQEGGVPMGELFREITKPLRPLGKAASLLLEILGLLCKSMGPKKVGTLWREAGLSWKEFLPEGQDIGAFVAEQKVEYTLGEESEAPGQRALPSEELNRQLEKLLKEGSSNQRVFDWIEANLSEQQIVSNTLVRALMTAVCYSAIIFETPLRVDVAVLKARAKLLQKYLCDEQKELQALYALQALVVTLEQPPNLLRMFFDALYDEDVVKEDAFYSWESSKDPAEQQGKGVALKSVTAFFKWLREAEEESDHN

Compound: Nc1nc2c(ncn2[C@@H]2O[C@H](COP(=O)(O)OP(=O)(O)OP(=O)(O)O)[C@@H](O)[C@H]2O)c(=O)[nH]1 [guanosine triphosphate]
Assay: NP40-soluble protein abundance relative to vehicle (solubility fold change) (ratio); higher = more soluble protein in presence of GTP
How it was run: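 In three independent experiments, Jurkat crude lysate made by Dounce homogenisation was treated for 10 min at room temperature and then 3 min at 37 °C with eight concentrations ranging from 0.1 to 10 mM. It was then solubilised with 0.8% NP40 plus benzonase for 60 min at 4 °C and ultracentrifuged. The supernatant was TMT-labelled for LC-MS/MS, and each value is the fold change against the detergent-processed vehicle for the same replicate, using vsn-normalised intensities.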

Target	NP40-soluble protein abundance (concentration: 0.1mM)	NP40-soluble protein abundance (concentration: 0.5mM)	NP40-soluble protein abundance (concentration: 1mM)	NP40-soluble protein abundance (concentration: 2mM)	NP40-soluble protein abundance (concentration: 4mM)	NP40-soluble protein abundance (concentration: 6mM)	NP40-soluble protein abundance (concentration: 8mM)	NP40-soluble protein abundance (concentration: 10mM)
MRPL49 (UniProt Q13405)	1.02 ± 0.1	1.06 ± 0.14	1.23 ± 0.3	1.35 ± 0.31	1.38 ± 0.42	1.36 ± 0.37	1.35 ± 0.29	1.37 ± 0.42
XRCC4 (UniProt Q13426)	1.01 ± 0.043	1.07 ± 0.058	1.07 ± 0.062	1.16 ± 0.098	1.12 ± 0.12	1.21 ± 0.14	1.21 ± 0.15	1.22 ± 0.16
TSTA3 (UniProt Q13630)	1.05 ± 0.039	1.04 ± 0.013	1.01 ± 0.078	0.967 ± 0.049	0.942 ± 0.051	0.993 ± 0.12	0.994 ± 0.11	0.934 ± 0.048
DHX34 (UniProt Q14147)	1.22 ± 0.17	1.07 ± 0.12	1.11 ± 0.056	1.11 ± 0.11	1.14 ± 0.04	1.13 ± 0.058	1.25 ± 0.14	1.09 ± 0.033
FADD (UniProt Q13158)	0.915 ± 0.014	0.86 ± 0.062	0.951 ± 0.057	0.945 ± 0.079	0.874 ± 0.063	0.893 ± 0.09	0.856 ± 0.15	0.858 ± 0.1
UniProt Q03933-2	1.08 ± 0.03	1.07 ± 0.012	1.06 ± 0.029	1 ± 0.047	0.989 ± 0.021	0.961 ± 0.055	1.09 ± 0.031	0.917 ± 0.043
TFDP1 (UniProt Q14186)	1.01 ± 0.075	1.01 ± 0.063	1.03 ± 0.055	0.9671 ± 0.0086	0.997 ± 0.035	0.96 ± 0.04	0.983 ± 0.021	0.971 ± 0.029
SORD (UniProt Q00796)	0.971 ± 0.079	1.01 ± 0.049	0.915 ± 0.056	0.931 ± 0.019	0.924 ± 0.037	0.9311 ± 0.0048	0.931 ± 0.075	0.909 ± 0.022
UniProt Q03164 and related entries	1.07 ± 0.051	1.09 ± 0.064	1.13 ± 0.08	1.16 ± 0.045	1.24 ± 0.073	1.29 ± 0.086	1.34 ± 0.12	1.37 ± 0.09
CPSF1 (UniProt Q10570)	1.1 ± 0.043	1.15 ± 0.085	1.13 ± 0.063	1.19 ± 0.11	1.26 ± 0.087	1.26 ± 0.096	1.26 ± 0.13	1.22 ± 0.098
AHNAK (UniProt Q09666)	0.977 ± 0.031	0.967 ± 0.047	1.01 ± 0.048	0.972 ± 0.078	0.973 ± 0.072	0.977 ± 0.06	1.01 ± 0.03	0.998 ± 0.044
DGKZ (UniProt Q13574)	1.01 ± 0.05	1.08 ± 0.06	1.03 ± 0.027	1.07 ± 0.086	0.959 ± 0.065	0.97 ± 0.091	0.983 ± 0.071	0.941 ± 0.12
UniProt Q12792 and related entries	1.09 ± 0.098	1.11 ± 0.14	1.02 ± 0.024	1.04 ± 0.0074	1.03 ± 0.05	0.974 ± 0.082	1.06 ± 0.036	0.993 ± 0.063
UniProt Q14677 and related entries	0.949 ± 0.049	0.967 ± 0.065	0.949 ± 0.087	0.942 ± 0.099	0.932 ± 0.098	0.959 ± 0.079	0.98 ± 0.061	0.98 ± 0.08
UniProt Q13155	1.12 ± 0.055	1.08 ± 0.12	1.21 ± 0.2	1.21 ± 0.21	1.3 ± 0.24	1.27 ± 0.29	1.34 ± 0.3	1.19 ± 0.26
ITK (UniProt Q08881)	0.998 ± 0.085	1.07 ± 0.15	0.931 ± 0.13	0.955 ± 0.15	0.915 ± 0.1	0.913 ± 0.11	0.857 ± 0.076	0.862 ± 0.13
MTM1 (UniProt Q13496)	1.01 ± 0.078	1.08 ± 0.088	0.961 ± 0.043	0.99 ± 0.076	0.933 ± 0.093	0.962 ± 0.093	0.93 ± 0.057	0.891 ± 0.087
UniProt Q13107 and related entries	1.09 ± 0.14	1.05 ± 0.16	1.04 ± 0.11	1.04 ± 0.11	1.02 ± 0.092	0.966 ± 0.075	1.01 ± 0.13	0.964 ± 0.14
GNL2 (UniProt Q13823)	1.06 ± 0.011	1.07 ± 0.043	1.07 ± 0.011	1.12 ± 0.047	1.16 ± 0.027	1.19 ± 0.08	1.23 ± 0.1	1.28 ± 0.17
UniProt Q04637-4|Q04637-5|Q04637-9|E7EUU4 and related entries	1 ± 0.051	1.04 ± 0.054	1.06 ± 0.048	1.05 ± 0.058	1.1 ± 0.054	1.1 ± 0.05	1.16 ± 0.073	1.16 ± 0.084
UniProt Q13501 and related entries	1.02 ± 0.065	1.01 ± 0.043	1.1 ± 0.085	1.11 ± 0.13	1.12 ± 0.15	1.09 ± 0.13	1.16 ± 0.18	1.19 ± 0.23
NMI (UniProt Q13287)	1 ± 0.03	0.969 ± 0.029	0.959 ± 0.033	0.93 ± 0.026	0.941 ± 0.065	0.929 ± 0.034	0.932 ± 0.024	0.909 ± 0.056
UniProt Q0VD83 and related entries	0.831 ± 0.12	0.803 ± 0.038	0.853 ± 0.1	0.7891 ± 0.0034	0.789 ± 0.13	0.741 ± 0.062	0.813 ± 0.096	0.792 ± 0.097
UniProt Q13561 and related entries	0.886 ± 0.025	0.86 ± 0.067	1.08 ± 0.071	1.07 ± 0.034	1.12 ± 0.055	1.09 ± 0.079	1.07 ± 0.12	1.15 ± 0.16
UniProt Q13642-1|Q13642-4|Q13642-5	1.07 ± 0.16	1.09 ± 0.17	0.946 ± 0.13	0.921 ± 0.14	0.932 ± 0.12	0.911 ± 0.12	0.952 ± 0.093	0.915 ± 0.15
CUL4A (UniProt Q13619)	1.07 ± 0.041	1.09 ± 0.077	1.02 ± 0.045	1.03 ± 0.11	0.989 ± 0.09	0.987 ± 0.076	0.987 ± 0.061	0.934 ± 0.042
UniProt Q02078-2|Q02078-6|H0YNI2 and related entries	0.977 ± 0.026	1.09 ± 0.058	1.04 ± 0.12	0.967 ± 0.011	1.08 ± 0.25	1.07 ± 0.22	0.959 ± 0.033	1.04 ± 0.069
UniProt Q14444 and related entries	0.95 ± 0.057	0.994 ± 0.098	1.06 ± 0.07	1.01 ± 0.14	1.02 ± 0.088	1.11 ± 0.1	1.16 ± 0.057	1.13 ± 0.11
XPC (UniProt Q01831)	0.945 ± 0.07	0.948 ± 0.056	0.943 ± 0.028	0.934 ± 0.022	0.99 ± 0.051	0.997 ± 0.054	1.02 ± 0.045	1.01 ± 0.041
UniProt Q13029 and related entries	1.03 ± 0.12	1.07 ± 0.057	1.14 ± 0.025	1.09 ± 0.15	1.04 ± 0.12	1.02 ± 0.15	1.12 ± 0.093	1.15 ± 0.11

Reformatted: entries from further up.
MTM1 (UniProt Q13496)
  NP40-soluble protein abundance (concentration: 0.1mM): 1.01 ± 0.078; NP40-soluble protein abundance (concentration: 0.5mM): 1.08 ± 0.088; NP40-soluble protein abundance (concentration: 1mM): 0.961 ± 0.043; NP40-soluble protein abundance (concentration: 2mM): 0.99 ± 0.076; NP40-soluble protein abundance (concentration: 4mM): 0.933 ± 0.093; NP40-soluble protein abundance (concentration: 6mM): 0.962 ± 0.093; NP40-soluble protein abundance (concentration: 8mM): 0.93 ± 0.057; NP40-soluble protein abundance (concentration: 10mM): 0.891 ± 0.087
UniProt Q13107 and related entries
  NP40-soluble protein abundance (concentration: 0.1mM): 1.09 ± 0.14; NP40-soluble protein abundance (concentration: 0.5mM): 1.05 ± 0.16; NP40-soluble protein abundance (concentration: 1mM): 1.04 ± 0.11; NP40-soluble protein abundance (concentration: 2mM): 1.04 ± 0.11; NP40-soluble protein abundance (concentration: 4mM): 1.02 ± 0.092; NP40-soluble protein abundance (concentration: 6mM): 0.966 ± 0.075; NP40-soluble protein abundance (concentration: 8mM): 1.01 ± 0.13; NP40-soluble protein abundance (concentration: 10mM): 0.964 ± 0.14
